Experimental data from paper doi:10.1101/2024.01.23.575293.
For at least one entry, the source does not settle the construct or the ends of the probe. The comparison behind a weaker result is the experiment's own reference, which may not be listed here. For part of these data: Tags and fusion partners may be left off the protein sequences shown.

By UniProt entry, the sequences of proteins in these tests, tags left out. Residues count along the entry.
UniProt Q04207, 19-306: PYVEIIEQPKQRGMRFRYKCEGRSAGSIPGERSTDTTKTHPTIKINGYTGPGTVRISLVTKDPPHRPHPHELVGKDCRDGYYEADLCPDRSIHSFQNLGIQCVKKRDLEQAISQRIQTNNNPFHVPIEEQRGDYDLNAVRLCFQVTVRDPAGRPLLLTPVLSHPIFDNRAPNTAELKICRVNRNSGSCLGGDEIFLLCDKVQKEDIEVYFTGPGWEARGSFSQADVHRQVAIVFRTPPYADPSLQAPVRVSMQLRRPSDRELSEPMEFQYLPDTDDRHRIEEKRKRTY

Tests used:
[1] = biological target: RelA RHR homodimer (UniProt Q04207); test: EMSA
[2] = biological target: T1, p50 RHR (alone: homodimer) (UniProt P25799); test: EMSA; conditions: p50:p50
T1 sequence (looked up, limits assumed): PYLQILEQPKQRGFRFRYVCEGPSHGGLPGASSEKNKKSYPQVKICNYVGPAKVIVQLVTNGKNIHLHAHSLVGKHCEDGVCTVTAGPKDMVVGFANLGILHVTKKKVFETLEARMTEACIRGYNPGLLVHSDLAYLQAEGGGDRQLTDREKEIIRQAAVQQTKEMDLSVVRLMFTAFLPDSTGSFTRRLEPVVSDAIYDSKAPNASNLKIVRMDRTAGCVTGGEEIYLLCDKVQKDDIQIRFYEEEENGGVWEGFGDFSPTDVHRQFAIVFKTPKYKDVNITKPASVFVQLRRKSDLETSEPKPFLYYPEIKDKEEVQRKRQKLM

“CCTAACATCACACTAGTTTTTGATGTTAGG (double strand) [Il12b NF-kB4 probe (Fig S4)]”: binds more weakly [1]; binds more weakly [2].
“CCTAACATCAAGAATGTTTTTGATGTTAGG (double strand) [Il12b NF-kB3 probe (Fig S4)]”: binds more weakly [2].
